# Results from US9119879B2, “Oral care compositions comprising a quinone and a further antimicrobial agent” (Colgate-Palmolive Company, priority 2010, dated 2015).
# System: A. viscosus biofilm
# Experiment: Single species A. viscosus biofilm assay (Biofilm Eradication Concentration, BEC50)
# Type: cell-based
# Method: TBHQ and a series of actives were tested in single species of A. viscosus biofilm assay. The data described in Tables 2 and 3 (below) is reported as the Biofilm Eradication Concentration (BEC50) which is the lowest concentration at which greater than 50% reduction in biofilm biomass is observed relative to control.
structure (smiles),measurement,setting,value
"CCCCCCCCCCCCCCCC[n+]1ccccc1 [Cetylpyridinium chloride, reference compound]",BEC50 of Active + 50 ppm TBHQ,active combined with 50 ppm TBHQ,<0.03 ppm
same,BEC50 of Active Alone,"lowest concentration with greater than 50% reduction in biofilm biomass relative to control, TBHQ tested at 50 ppm",0.97 ppm
